For assay [1], the target named is telomere-binding protein TRF2 (human (endogenous in MRC5 or HT1080)) (UniProt Q15554). As to the kind of experiment: co-IP.
In assay [2] the target is EZH2 (catalytic component of the PRC2 complex) (human (endogenous in HT1080)), Q15910. The assay is described as follows: co-IP. The following applies: remark: other sources report otherwise.

By UniProt entry, the sequences of proteins in these tests, tags left out.
UniProt Q15554: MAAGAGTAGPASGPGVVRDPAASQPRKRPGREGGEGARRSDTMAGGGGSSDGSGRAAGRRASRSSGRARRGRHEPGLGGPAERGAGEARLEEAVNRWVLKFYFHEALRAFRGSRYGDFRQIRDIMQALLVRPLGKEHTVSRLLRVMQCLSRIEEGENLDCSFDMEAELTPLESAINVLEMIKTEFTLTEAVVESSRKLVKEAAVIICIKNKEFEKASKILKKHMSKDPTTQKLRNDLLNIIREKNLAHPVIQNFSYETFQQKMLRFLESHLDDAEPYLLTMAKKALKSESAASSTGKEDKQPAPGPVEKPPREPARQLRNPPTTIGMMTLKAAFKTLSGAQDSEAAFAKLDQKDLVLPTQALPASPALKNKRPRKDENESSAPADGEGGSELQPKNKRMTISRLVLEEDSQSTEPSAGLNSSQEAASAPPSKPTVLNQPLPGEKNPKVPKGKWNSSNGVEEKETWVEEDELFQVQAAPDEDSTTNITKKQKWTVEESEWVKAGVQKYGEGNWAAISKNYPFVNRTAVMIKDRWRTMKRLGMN

These are yes or no findings as the source states them, for the method shown. In cells and extracts the contact can be indirect. Some results given as binding are weak or reduced against the parent protein; the word gives no strength.

B1: RE1-silencing factor (REST) (protein, UniProt Q13127 1-1097)
chain: MATQVMGQSSGGGGLFTSSGNIGMALPNDMYDLHDLSKAELAAPQLIMLANVALTGEVNGSCCDYLVGEERQMAELMPVGDNNFSDSEEGEGLEESADIKGEPHGLENMELRSLELSVVEPQPVFEASGAPDIYSSNKDLPPETPGAEDKGKSSKTKPFRCKPCQYEAESEEQFVHHIRVHSAKKFFVEESAEKQAKARESGSSTAEEGDFSKGPIRCDRCGYNTNRYDHYTAHLKHHTRAGDNERVYKCIICTYTTVSEYHWRKHLRNHFPRKVYTCGKCNYFSDRKNNYVQHVRTHTGERPYKCELCPYSSSQKTHLTRHMRTHSGEKPFKCDQCSYVASNQHEVTRHARQVHNGPKPLNCPHCDYKTADRSNFKKHVELHVNPRQFNCPVCDYAASKKCNLQYHFKSKHPTCPNKTMDVSKVKLKKTKKREADLPDNITNEKTEIEQTKIKGDVAGKKNEKSVKAEKRDVSKEKKPSNNVSVIQVTTRTRKSVTEVKEMDVHTGSNSEKFSKTKKSKRKLEVDSHSLHGPVNDEESSTKKKKKVESKSKNNSQEVPKGDSKVEENKKQNTCMKKSTKKKTLKNKSSKKSSKPPQKEPVEKGSAQMDPPQMGPAPTEAVQKGPVQVEPPPPMEHAQMEGAQIRPAPDEPVQMEVVQEGPAQKELLPPVEPAQMVGAQIVLAHMELPPPMETAQTEVAQMGPAPMEPAQMEVAQVESAPMQVVQKEPVQMELSPPMEVVQKEPVQIELSPPMEVVQKEPVKIELSPPIEVVQKEPVQMELSPPMGVVQKEPAQREPPPPREPPLHMEPISKKPPLRKDKKEKSNMQSERARKEQVLIEVGLVPVKDSWLLKESVSTEDLSPPSPPLPKENLREEASGDQKLLNTGEGNKEAPLQKVGAEEADESLPGLAANINESTHISSSGQNLNTPEGETLNGKHQTDSIVCEMKMDTDQNTRENLTGINSTVEEPVSPMLPPSAVEEREAVSKTALASPPATMAANESQEIDEDEGIHSHEGSDLSDNMSEGSDDSGLHGARPVPQESSRKNAKEALAVKAAKGDFVCIFCDRSFRKGKDYSKHLNRHLVNVYYLEEAAQGQE
As for B1, in assay [1], the binding result is given as “binds”.

B2: RE1-silencing factor (REST), Q13127 1-1097 (protein)
chain: MATQVMGQSSGGGGLFTSSGNIGMALPNDMYDLHDLSKAELAAPQLIMLANVALTGEVNGSCCDYLVGEERQMAELMPVGDNNFSDSEEGEGLEESADIKGEPHGLENMELRSLELSVVEPQPVFEASGAPDIYSSNKDLPPETPGAEDKGKSSKTKPFRCKPCQYEAESEEQFVHHIRVHSAKKFFVEESAEKQAKARESGSSTAEEGDFSKGPIRCDRCGYNTNRYDHYTAHLKHHTRAGDNERVYKCIICTYTTVSEYHWRKHLRNHFPRKVYTCGKCNYFSDRKNNYVQHVRTHTGERPYKCELCPYSSSQKTHLTRHMRTHSGEKPFKCDQCSYVASNQHEVTRHARQVHNGPKPLNCPHCDYKTADRSNFKKHVELHVNPRQFNCPVCDYAASKKCNLQYHFKSKHPTCPNKTMDVSKVKLKKTKKREADLPDNITNEKTEIEQTKIKGDVAGKKNEKSVKAEKRDVSKEKKPSNNVSVIQVTTRTRKSVTEVKEMDVHTGSNSEKFSKTKKSKRKLEVDSHSLHGPVNDEESSTKKKKKVESKSKNNSQEVPKGDSKVEENKKQNTCMKKSTKKKTLKNKSSKKSSKPPQKEPVEKGSAQMDPPQMGPAPTEAVQKGPVQVEPPPPMEHAQMEGAQIRPAPDEPVQMEVVQEGPAQKELLPPVEPAQMVGAQIVLAHMELPPPMETAQTEVAQMGPAPMEPAQMEVAQVESAPMQVVQKEPVQMELSPPMEVVQKEPVQIELSPPMEVVQKEPVKIELSPPIEVVQKEPVQMELSPPMGVVQKEPAQREPPPPREPPLHMEPISKKPPLRKDKKEKSNMQSERARKEQVLIEVGLVPVKDSWLLKESVSTEDLSPPSPPLPKENLREEASGDQKLLNTGEGNKEAPLQKVGAEEADESLPGLAANINESTHISSSGQNLNTPEGETLNGKHQTDSIVCEMKMDTDQNTRENLTGINSTVEEPVSPMLPPSAVEEREAVSKTALASPPATMAANESQEIDEDEGIHSHEGSDLSDNMSEGSDDSGLHGARPVPQESSRKNAKEALAVKAAKGDFVCIFCDRSFRKGKDYSKHLNRHLVNVYYLEEAAQGQE
For the molecule B2, the binding entry in assay [2] is “binds”.

For the origin of these results see doi:10.1101/2020.01.15.907626.
